According to patent publication US20190255086A1, “Compositions and Methods for Treating an Infection” (CMPD Licensing, LLC, priority 2015, published 2019):

Test system: Mycoplasma pneumoniae
Assay: Expected efficacy of anti-bacterial agents against various bacteria (Tables 5 and 6)
Conditions: Gram: n/a

SMILES: O=C(O)c1cn(C2CC2)c2cc(N3CCNCC3)c(F)cc2c1=O [Ciprofloxacin]
- Efficacy of various antibiotic agents: yes
